In doi:10.1101/2022.09.20.508788:
Where two headings read alike, the source gives them in different places. These are yes or no findings as the source states them, for the method shown. In cells and extracts the contact can be indirect. Some binding calls cover weakened binding; strength is not graded here.

What was measured:
[1] = molecular target: HA tagged MR1 (Major Histocompatibility Related Protein 1) (UniProt Q95460); experiment: co-IP
[2] = molecular target: HA tagged MR1 (Major Histocompatibility Related Protein 1) (UniProt Q95460); experiment: co-IP; remark: listed apart in the source

## Calreticulin (CALR) (from UniProt P27797 18-417)
[1]
  binding: binds

## SQSTM1/p62 (from UniProt Q13501 1-440)
[1]
  binding: binds

B1: Calnexin (CANX) (protein, UniProt P27824 21-592)
chain: HDGHDDDVIDIEDDLDDVIEEVEDSKPDTTAPPSSPKVTYKAPVPTGEVYFADSFDRGTLSGWILSKAKKDDTDDEIAKYDGKWEVEEMKESKLPGDKGLVLMSRAKHHAISAKLNKPFLFDTKPLIVQYEVNFQNGIECGGAYVKLLSKTPELNLDQFHDKTPYTIMFGPDKCGEDYKLHFIFRHKNPKTGIYEEKHAKRPDADLKTYFTDKKTHLYTLILNPDNSFEILVDQSVVNSGNLLNDMTPPVNPSREIEDPEDRKPEDWDERPKIPDPEAVKPDDWDEDAPAKIPDEEATKPEGWLDDEPEYVPDPDAEKPEDWDEDMDGEWEAPQIANPRCESAPGCGVWQRPVIDNPNYKGKWKPPMIDNPSYQGIWKPRKIPNPDFFEDLEPFRMTPFSAIGLELWSMTSDIFFDNFIICADRRIVDDWANDGWGLKKAADGAAEPGVVGQMIEAAEERPWLWVVYILTVALPVFLVILFCCSGKKQTSGMEYKKTDAPQPDVKEEEEEKEEEKDKGDEEEEGEEKLEEKQKSDAEEDGGTVSQEEEDRKPKAEEDEILNRSPRNRKPRRE
[1]
  binding: binds
[2]
  binding: binds weakly
